Data on one molecule can be found in PMC10823479 (Journal of Medicinal Chemistry, 2024).

One data set is described as follows: in vitro. Particulars: rat, microsomes.
For data set [1] the following is noted: in vivo, im; cited from earlier work.

By fraction remaining is commonly meant what is left of the initial amount, in per cent. As to `COc1cc2c(cc1OC)C(=O)C(CC1CCN(Cc3ccccc3)CC1)C2` (centres unmarked) [donepezil, reference compound], the fraction remaining at 2 h in “in vitro” worked out at 75.1%. Further, the clearance in data set [1] was 1 mL/min/kg.
